Source: PMC10755004, “Pyrimidine salvage in Toxoplasma gondii as a target for new treatment” (Frontiers in Cellular and Infection Microbiology, 2023)

System: T. gondii tachyzoites
Experiment: Uptake of tritiated pyrimidines by T. gondii tachyzoites over time
Assay type: cell-based, Toxoplasma gondii
Details: for Saturable: uptake of radiolabel in presence of excess unlabeled permeant

Row | Compound | uptake rate relative to thymidine (0.2 µM [3H]-cytidine vs 0.25 µM [3H]-thymidine) [fold] | Saturable | uptake rate relative to uridine (0.1 µM [3H]-uracil vs 0.1 µM [3H]-uridine) | Saturable (listed as [^3H]-uracil)
1 | Nc1ccn([C@@H]2O[C@H](CO)[C@@H](O)[C@H]2O)c(=O)n1 [Cytidine] | > 4 | Yes |  | 
2 | O=c1cc[nH]c(=O)[nH]1 [Uracil] |  | Yes | ~ 2.5 fold | fully saturable
3 | Cc1cn([C@H]2C[C@H](O)[C@@H](CO)O2)c(=O)[nH]c1=O [Thymidine] |  | No |  | 
